# Test results taken from paper PMC8959180.
# Results are given in words; binding and its absence hold for the method and conditions named. Some results given as binding are weak or reduced against the parent protein; the word gives no strength. Tags and fused reporters may be left off the sequences shown.
# T1: MurA (bacterial two hybrid fusions to T18 and T25) (L. monocytogenes) (UniProt Q8Y4C4)
# T1 sequence: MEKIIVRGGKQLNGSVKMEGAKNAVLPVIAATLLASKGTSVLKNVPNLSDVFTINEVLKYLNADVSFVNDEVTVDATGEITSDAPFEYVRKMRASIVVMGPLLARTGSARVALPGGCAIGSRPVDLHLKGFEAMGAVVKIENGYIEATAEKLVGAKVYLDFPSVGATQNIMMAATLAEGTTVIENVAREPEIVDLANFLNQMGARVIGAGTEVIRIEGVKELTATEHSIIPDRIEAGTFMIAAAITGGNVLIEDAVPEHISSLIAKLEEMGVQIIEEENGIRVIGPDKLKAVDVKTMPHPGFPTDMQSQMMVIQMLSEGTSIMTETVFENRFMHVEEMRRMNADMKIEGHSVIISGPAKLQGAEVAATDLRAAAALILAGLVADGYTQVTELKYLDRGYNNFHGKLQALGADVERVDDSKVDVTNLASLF
# Target: T1, MurA (bacterial two hybrid fusions to T18 and T25) (L. monocytogenes)
# Test: two-hybrid
row,Binder,binding
1,"MurA (bacterial two hybrid fusions to T18 and T25) (enzyme, UniProt Q8Y4C4 1-430) MEKIIVRGGKQLNGSVKMEGAKNAVLPVIAATLLASKGTSVLKNVPNLSDVFTINEVLKYLNADVSFVNDEVTVDATGEITSDAPFEYVRKMRASIVVMGPLLARTGSARVALPGGCAIGSRPVDLHLKGFEAMGAVVKIENGYIEATAEKLVGAKVYLDFPSVGATQNIMMAATLAEGTTVIENVAREPEIVDLANFLNQMGARVIGAGTEVIRIEGVKELTATEHSIIPDRIEAGTFMIAAAITGGNVLIEDAVPEHISSLIAKLEEMGVQIIEEENGIRVIGPDKLKAVDVKTMPHPGFPTDMQSQMMVIQMLSEGTSIMTETVFENRFMHVEEMRRMNADMKIEGHSVIISGPAKLQGAEVAATDLRAAAALILAGLVADGYTQVTELKYLDRGYNNFHGKLQALGADVERVDDSKVDVTNLASLF",binds
2,"MurA N197D (bacterial two hybrid fusions to T25) (enzyme, UniProt Q8Y4C4 1-430) MEKIIVRGGKQLNGSVKMEGAKNAVLPVIAATLLASKGTSVLKNVPNLSDVFTINEVLKYLNADVSFVNDEVTVDATGEITSDAPFEYVRKMRASIVVMGPLLARTGSARVALPGGCAIGSRPVDLHLKGFEAMGAVVKIENGYIEATAEKLVGAKVYLDFPSVGATQNIMMAATLAEGTTVIENVAREPEIVDLADFLNQMGARVIGAGTEVIRIEGVKELTATEHSIIPDRIEAGTFMIAAAITGGNVLIEDAVPEHISSLIAKLEEMGVQIIEEENGIRVIGPDKLKAVDVKTMPHPGFPTDMQSQMMVIQMLSEGTSIMTETVFENRFMHVEEMRRMNADMKIEGHSVIISGPAKLQGAEVAATDLRAAAALILAGLVADGYTQVTELKYLDRGYNNFHGKLQALGADVERVDDSKVDVTNLASLF",binds
3,"MurA S262L (bacterial two hybrid fusions to T25) (enzyme, UniProt Q8Y4C4 1-430) MEKIIVRGGKQLNGSVKMEGAKNAVLPVIAATLLASKGTSVLKNVPNLSDVFTINEVLKYLNADVSFVNDEVTVDATGEITSDAPFEYVRKMRASIVVMGPLLARTGSARVALPGGCAIGSRPVDLHLKGFEAMGAVVKIENGYIEATAEKLVGAKVYLDFPSVGATQNIMMAATLAEGTTVIENVAREPEIVDLANFLNQMGARVIGAGTEVIRIEGVKELTATEHSIIPDRIEAGTFMIAAAITGGNVLIEDAVPEHISLLIAKLEEMGVQIIEEENGIRVIGPDKLKAVDVKTMPHPGFPTDMQSQMMVIQMLSEGTSIMTETVFENRFMHVEEMRRMNADMKIEGHSVIISGPAKLQGAEVAATDLRAAAALILAGLVADGYTQVTELKYLDRGYNNFHGKLQALGADVERVDDSKVDVTNLASLF",binds
